Results are given in words; binding and its absence hold for the method and conditions named.
Key:
[1] = molecular target: Bub1(1–553)/Bub3 complex (3×FLAG–Bub1(1–553) with untagged Bub3) (UniProt O43683); test: MST; RED-…-labelled complex (25, 12.5 or 4 nM) with twofold serial dilutions of peptide; 50 mM Tris pH 7.8, 50 mM NaCl, 0.5 mM TCEP, 0.05% Tween 20; 40% MST power; NanoTemper Monolith NT.115; both purified
[2] = molecular target: BubR1/Bub3 complex (3×FLAG–BubR1 with untagged Bub3) (UniProt O60566); test: as above

The chains behind the UniProt entries cited, without tags or fusion partners. Where a name states a change or a piece, a line headed by the entry shows the natural chain unless it says otherwise.
UniProt O43683: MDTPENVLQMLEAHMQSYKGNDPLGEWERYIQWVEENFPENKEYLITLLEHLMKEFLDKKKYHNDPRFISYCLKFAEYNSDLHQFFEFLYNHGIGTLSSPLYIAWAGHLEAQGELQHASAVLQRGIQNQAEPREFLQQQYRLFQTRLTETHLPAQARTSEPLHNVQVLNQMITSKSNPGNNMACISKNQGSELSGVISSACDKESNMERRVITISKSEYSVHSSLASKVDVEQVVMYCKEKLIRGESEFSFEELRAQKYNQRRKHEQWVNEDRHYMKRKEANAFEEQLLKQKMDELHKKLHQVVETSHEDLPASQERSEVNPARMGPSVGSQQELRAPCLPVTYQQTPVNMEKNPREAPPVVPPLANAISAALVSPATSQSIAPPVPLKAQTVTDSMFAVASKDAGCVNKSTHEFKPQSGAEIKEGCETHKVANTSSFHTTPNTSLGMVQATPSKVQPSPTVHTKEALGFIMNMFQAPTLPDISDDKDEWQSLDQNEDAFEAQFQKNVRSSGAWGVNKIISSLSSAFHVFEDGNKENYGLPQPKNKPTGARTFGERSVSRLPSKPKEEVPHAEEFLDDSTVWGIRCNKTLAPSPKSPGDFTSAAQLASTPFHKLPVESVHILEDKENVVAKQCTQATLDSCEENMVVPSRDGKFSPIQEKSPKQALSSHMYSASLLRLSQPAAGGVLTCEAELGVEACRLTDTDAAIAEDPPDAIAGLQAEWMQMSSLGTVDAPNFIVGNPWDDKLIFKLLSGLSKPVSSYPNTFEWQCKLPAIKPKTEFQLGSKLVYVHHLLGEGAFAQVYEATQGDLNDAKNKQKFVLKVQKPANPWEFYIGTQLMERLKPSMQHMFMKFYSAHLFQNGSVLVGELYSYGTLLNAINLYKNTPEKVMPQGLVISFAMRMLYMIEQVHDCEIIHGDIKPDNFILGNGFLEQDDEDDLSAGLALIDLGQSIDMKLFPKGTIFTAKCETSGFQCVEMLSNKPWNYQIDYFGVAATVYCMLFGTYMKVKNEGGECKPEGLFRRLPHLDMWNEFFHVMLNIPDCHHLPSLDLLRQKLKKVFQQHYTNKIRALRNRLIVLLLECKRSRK
UniProt O60566: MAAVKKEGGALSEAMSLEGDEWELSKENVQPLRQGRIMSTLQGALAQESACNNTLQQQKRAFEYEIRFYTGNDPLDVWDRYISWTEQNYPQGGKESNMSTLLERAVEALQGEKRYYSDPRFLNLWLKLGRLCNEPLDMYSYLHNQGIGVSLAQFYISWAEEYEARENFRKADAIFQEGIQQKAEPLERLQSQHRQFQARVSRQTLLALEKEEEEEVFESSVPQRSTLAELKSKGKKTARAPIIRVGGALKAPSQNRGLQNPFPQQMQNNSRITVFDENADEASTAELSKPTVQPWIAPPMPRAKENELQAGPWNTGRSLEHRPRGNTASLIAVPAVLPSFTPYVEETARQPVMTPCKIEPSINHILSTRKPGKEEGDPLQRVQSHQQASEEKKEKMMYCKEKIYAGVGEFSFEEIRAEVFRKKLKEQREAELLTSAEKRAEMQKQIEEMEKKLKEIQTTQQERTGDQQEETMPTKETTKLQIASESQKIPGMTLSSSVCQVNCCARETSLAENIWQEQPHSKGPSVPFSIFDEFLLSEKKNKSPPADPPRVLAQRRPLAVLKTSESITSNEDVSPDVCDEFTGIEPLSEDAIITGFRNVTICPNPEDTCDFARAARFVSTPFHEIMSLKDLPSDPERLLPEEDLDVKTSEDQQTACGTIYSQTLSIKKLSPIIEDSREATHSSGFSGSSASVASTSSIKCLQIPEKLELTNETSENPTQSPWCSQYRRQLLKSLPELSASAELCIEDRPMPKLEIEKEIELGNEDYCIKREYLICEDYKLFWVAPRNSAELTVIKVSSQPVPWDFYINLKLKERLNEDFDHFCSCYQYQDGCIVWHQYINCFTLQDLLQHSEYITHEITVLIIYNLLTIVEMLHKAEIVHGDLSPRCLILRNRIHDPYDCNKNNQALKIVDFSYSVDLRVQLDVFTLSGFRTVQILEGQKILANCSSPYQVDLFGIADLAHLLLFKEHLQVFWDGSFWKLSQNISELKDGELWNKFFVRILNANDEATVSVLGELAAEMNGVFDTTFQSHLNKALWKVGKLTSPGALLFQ

binding [1]: no binding
binding [2]: no binding
B1: MELT18p peptide, …-Tp-DSHTVFID-amide (peptide)
peptide: TDNYSDLEVTDSHTVFID
modifications: phosphothreonine (Tp) at position 10; C-terminal amide
